From paper PMC7560607, “Synapse type-specific proteomic dissection identifies IgSF8 as a hippocampal CA3 microcircuit organizer” (Nature Communications, 2020)
No constants are given. Whether binding was seen depends on the method and setting. For some of these results: Binding seen in cells or lysates may run through a third protein. Some binding calls cover weakened binding; strength is not graded here. Where a sequence is shown, tags or fusion partners need not be part of it.

The chains behind the UniProt entries cited, without tags or fusion partners. Residues count along the entry.
UniProt Q6VNS1, residues 32-429: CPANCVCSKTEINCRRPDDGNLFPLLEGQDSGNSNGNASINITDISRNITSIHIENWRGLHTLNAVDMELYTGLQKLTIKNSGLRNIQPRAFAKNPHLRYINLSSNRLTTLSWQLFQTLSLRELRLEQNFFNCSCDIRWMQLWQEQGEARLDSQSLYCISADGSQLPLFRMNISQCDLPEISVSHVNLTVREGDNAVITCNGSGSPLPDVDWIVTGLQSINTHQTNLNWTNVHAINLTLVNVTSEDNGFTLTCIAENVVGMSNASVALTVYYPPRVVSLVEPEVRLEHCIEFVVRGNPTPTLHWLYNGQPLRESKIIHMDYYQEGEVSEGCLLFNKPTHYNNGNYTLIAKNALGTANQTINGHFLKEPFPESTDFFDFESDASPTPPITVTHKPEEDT

What was measured:
[1] = molecular target: T1, Tenascin-R-Fc, purified (not stated (human or mouse sequence cloned)) (UniProt Q8BYI9); experiment: pull-down; 3 µg Fc protein added to RIPA lysate of transfected HEK293T cells, overnight 4 °C; Protein-A agarose; anti-GFP western blot; only the target purified
T1 sequence: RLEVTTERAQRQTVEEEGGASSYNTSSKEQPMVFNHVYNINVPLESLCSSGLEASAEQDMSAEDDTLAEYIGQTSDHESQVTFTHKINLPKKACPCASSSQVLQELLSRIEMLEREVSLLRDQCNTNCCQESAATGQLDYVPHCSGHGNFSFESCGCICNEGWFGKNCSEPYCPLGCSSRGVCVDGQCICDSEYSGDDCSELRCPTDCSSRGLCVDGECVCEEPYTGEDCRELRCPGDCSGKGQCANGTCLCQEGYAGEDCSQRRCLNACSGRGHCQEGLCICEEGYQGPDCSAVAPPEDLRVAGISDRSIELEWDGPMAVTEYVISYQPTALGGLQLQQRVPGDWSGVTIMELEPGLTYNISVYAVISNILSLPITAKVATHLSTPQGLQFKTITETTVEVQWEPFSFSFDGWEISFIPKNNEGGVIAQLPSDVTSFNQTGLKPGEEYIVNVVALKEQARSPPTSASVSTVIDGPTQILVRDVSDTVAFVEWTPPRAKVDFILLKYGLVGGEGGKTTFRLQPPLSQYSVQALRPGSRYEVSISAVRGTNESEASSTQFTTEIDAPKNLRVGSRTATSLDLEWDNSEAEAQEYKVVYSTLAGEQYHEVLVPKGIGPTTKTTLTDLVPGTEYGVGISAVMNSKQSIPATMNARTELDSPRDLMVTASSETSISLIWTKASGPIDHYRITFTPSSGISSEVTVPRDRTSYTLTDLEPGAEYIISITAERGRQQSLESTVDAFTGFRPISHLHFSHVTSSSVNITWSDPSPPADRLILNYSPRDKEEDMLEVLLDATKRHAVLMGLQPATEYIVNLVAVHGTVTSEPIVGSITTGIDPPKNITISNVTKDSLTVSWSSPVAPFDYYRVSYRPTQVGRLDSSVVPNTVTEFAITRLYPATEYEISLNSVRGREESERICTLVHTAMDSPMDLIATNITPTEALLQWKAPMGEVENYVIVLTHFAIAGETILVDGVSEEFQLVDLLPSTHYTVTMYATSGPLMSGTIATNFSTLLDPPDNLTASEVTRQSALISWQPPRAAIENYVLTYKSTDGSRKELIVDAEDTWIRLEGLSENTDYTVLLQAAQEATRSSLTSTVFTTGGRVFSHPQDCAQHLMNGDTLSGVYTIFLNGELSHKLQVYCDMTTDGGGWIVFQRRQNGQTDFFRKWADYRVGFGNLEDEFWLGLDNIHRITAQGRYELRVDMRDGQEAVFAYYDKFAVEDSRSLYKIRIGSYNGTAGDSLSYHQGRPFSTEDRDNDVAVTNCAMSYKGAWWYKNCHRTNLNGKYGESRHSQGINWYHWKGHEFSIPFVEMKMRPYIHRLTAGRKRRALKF

[2] = molecular target: T2, Tenascin-R-Fc (not stated (human or mouse sequences)) (UniProt Q8BYI9); experiment: pull-down; 3 ug purified Fc fusion added to 1 ml RIPA lysate of transfected HEK293T cells, overnight 4 °C, Protein-A agarose beads, western blot with anti-GFP; only the target purified
T2 sequence: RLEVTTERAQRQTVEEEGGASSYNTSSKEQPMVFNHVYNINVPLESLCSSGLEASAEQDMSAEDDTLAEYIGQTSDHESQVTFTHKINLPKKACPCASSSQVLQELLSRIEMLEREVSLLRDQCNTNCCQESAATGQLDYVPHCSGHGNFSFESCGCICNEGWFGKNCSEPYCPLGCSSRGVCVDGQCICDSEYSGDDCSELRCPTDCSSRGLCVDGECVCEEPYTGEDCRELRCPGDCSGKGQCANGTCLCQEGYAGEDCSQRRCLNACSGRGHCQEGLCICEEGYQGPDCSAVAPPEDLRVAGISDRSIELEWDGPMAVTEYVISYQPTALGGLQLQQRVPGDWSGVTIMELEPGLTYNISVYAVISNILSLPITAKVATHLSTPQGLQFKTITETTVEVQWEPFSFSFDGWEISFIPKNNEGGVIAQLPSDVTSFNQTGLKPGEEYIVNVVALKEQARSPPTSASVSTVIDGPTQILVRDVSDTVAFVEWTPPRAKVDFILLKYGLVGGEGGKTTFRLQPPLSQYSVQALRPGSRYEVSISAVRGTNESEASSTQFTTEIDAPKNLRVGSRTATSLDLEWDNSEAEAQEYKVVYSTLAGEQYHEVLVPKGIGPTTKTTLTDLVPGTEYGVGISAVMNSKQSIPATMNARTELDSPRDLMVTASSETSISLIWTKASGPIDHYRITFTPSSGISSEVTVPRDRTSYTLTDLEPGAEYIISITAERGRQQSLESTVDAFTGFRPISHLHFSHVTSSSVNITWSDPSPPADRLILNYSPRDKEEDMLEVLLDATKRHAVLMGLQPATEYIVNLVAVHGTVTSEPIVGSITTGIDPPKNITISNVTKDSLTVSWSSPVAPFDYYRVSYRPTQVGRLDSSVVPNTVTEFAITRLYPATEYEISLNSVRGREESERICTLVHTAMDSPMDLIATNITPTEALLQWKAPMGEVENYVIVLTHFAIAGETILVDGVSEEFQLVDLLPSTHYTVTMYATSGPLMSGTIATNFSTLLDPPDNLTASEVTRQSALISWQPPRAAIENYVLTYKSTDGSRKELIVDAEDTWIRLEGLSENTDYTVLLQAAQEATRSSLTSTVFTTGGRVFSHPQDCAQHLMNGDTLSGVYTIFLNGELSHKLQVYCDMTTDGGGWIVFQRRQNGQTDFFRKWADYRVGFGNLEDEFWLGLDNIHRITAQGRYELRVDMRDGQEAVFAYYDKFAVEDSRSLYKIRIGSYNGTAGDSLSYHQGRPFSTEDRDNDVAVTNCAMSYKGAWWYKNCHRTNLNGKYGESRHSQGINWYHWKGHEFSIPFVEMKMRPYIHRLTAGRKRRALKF

[3] = molecular target: TrkC ectodomain (Fc and AP fusions) (not stated (human or mouse ectodomain sequences)) (UniProt Q6VNS1); experiment: ELISA; 384-well pairwise screen; ecto-AP fusion captured on plate by anti-AP antibody, ecto-Fc fusion detected with anti-human IgG1-HRP; conditioned media, 4 h RT; both orientations; positive: OD650 > 5-fold over background, detected at least twice in three experiments
[4] = molecular target: T3, Tenascin-R, AP- or Fc-tagged (interactome library) (not stated (human or mouse sequence cloned)) (UniProt Q8BYI9); experiment: ELISA; 384-well pairwise screen; ecto-AP bait captured by plate-bound anti-AP antibody, ecto-Fc prey detected with anti-human IgG1-HRP; conditioned media; 4 h at RT; both orientations, three independent experiments; positive = OD650 > 5-fold over background, detected at least twice
T3 sequence: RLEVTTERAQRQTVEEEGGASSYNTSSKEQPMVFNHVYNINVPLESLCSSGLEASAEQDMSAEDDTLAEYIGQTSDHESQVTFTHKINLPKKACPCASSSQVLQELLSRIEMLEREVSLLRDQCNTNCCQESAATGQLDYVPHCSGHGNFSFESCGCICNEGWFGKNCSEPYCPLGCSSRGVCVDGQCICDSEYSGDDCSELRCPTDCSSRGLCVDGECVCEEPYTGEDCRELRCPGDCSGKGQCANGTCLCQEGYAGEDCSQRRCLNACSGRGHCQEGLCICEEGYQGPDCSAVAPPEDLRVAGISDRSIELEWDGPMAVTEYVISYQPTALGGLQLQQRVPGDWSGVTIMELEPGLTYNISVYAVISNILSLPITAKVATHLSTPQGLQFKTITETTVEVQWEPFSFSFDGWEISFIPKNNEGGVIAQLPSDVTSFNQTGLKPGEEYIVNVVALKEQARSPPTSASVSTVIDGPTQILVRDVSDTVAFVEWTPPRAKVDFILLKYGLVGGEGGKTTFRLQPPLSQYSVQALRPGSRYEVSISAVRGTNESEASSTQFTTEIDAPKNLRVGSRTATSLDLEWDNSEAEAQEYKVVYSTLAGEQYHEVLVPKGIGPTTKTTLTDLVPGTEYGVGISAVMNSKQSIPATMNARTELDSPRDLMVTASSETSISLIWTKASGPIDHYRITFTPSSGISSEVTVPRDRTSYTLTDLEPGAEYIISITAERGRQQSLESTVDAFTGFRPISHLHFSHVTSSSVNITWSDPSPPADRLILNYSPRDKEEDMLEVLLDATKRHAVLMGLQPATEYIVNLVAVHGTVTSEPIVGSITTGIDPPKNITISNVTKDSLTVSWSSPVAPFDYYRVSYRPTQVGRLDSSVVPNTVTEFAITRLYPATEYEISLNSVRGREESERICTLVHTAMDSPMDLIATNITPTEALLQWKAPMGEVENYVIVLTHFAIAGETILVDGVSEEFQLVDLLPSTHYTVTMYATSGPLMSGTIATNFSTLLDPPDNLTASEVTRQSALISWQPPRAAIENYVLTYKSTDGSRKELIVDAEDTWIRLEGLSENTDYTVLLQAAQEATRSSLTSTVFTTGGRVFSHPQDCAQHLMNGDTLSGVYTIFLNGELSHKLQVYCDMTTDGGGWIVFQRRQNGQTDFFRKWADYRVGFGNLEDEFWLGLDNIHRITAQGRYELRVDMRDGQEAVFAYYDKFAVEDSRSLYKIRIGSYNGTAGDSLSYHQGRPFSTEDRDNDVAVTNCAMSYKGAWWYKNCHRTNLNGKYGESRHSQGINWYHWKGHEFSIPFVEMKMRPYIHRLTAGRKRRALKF

B1: IgSF8-EGFP (receptor, UniProt Q8R366 26-611)
chain: RQVHVPRGPLYRVAGTAVSISCNVSDYEGPAQQDFEWFMYRPEAPATSLGIVSTKDSQFSYAVFGPRVASGDLQVQRLKGDSVVLKIARLQAQDSGFYECYTPSTDTQYLGNYSAKVELRVLPDELQVSAAPPGPRGRQAATSPSRLTVHEGQELALGCLAQTKTKKHTHLSVSFGRAIPEAPVGRATLQEVVGLRSDMAVEAGAPYAERLASGELRLSKEGTDRYRMVVGGAQAGDSGTYHCTAAEWIQDPDGSWVQVAEKRAVLAHVDVQTLSSQLAVTVGPGERRIGPGEPLELLCNVSGALPPPGRHAAYSVGWEMAPAGAPGPGRLVAQLDTEGIGSLGPGYEDRHIAMEKVASRTYRLRLEAARPADAGTYRCLAKAYVRGSGTRLREAASARSRPLPVHVREEGVVLEAVAWLAGGTVYRGETASLLCNISVRGGPPGLRLAASWWVERPEEGELSSGPAQLVGGVGQDGVAELGVRPGGGPVSVELVGPRSHRLRLHGLGPEDEGIYHCAPSAWVQHADYSWYQAGSARSGPVTVYPYTHAVDTLFVPLLVGTGVALVTGASVLATITCCFMKRMRKR
[1]
  binding: binds
[2]
  binding: binds

B2: RPTPσ ectodomain (Fc and AP fusions) (domain or fragment, UniProt B0V2N1 30-1257)
chain: EEPPRFIREPKDQIGVSGGVASFVCQATGDPKPRVTWNKKGKKVNSQRFETIDFDESSGAVLRIQPLRTPRDENVYECVAQNSVGEITIHAKLTVLREDQLPPGFPNIDMGPQLKVVERTRTATMLCAASGNPDPEITWFKDFLPVDPSASNGRIKQLRSGALQIESSEETDQGKYECVATNSAGVRYSSPANLYVRVRRVAPRFSILPMSHEIMPGGNVNITCVAVGSPMPYVKWMQGAEDLTPEDDMPVGRNVLELTDVKDSANYTCVAMSSLGVIEAVAQITVKSLPKAPGTPVVTENTATSITVTWDSGNPDPVSYYVIEYKSKSQDGPYQIKEDITTTRYSIGGLSPNSEYEIWVSAVNSIGQGPPSESVVTRTGEQAPASAPRNVQARMLSATTMIVQWEEPVEPNGLIRGYRVYYTMEPEHPVGNWQKHNVDDSLLTTVGSLLEDETYTVRVLAFTSVGDGPLSDPIQVKTQQGVPGQPMNLRAEAKSETSIGLSWSAPRQESVIKYELLFREGDRGREVGRTFDPTTAFVVEDLKPNTEYAFRLAARSPQGLGAFTAVVRQRTLQAKPSAPPQDVKCTSLRSTAILVSWRPPPPETHNGALVGYSVRYRPLGSEDPDPKEVNNIPPTTTQILLEALEKWTEYRVTAVAYTEVGPGPESSPVVVRTDEDVPSAPPRKVEAEALNATAIRVLWRSPTPGRQHGQIRGYQVHYVRMEGAEARGPPRIKDIMLADAQEMVITNLQPETAYSITVAAYTMKGDGARSKPKVVVTKGAVLGRPTLSVQQTPEGSLLARWEPPADAAEDPVLGYRLQFGREDAAPATLELAAWERRFAAPAHKGATYVFRLAARGRAGLGEEAAAALSIPEDAPRGFPQILGAAGNVSAGSVLLRWLPPVPAERNGAIIKYTVSVREAGAPGPATETELAAAAQPGAETALTLRGLRPETAYELRVRAHTRRGPGPFSPPLRYRLARDPVSPKNFKVKMIMKTSVLLSWEFPDNYNSPTPYKIQYNGLTLDVDGRTTKKLITHLKPHTFYNFVLTNRGSSLGGLQQTVTARTAFNMLSGKPSVAPKPDNDGFIVVYLPDGQSPVTVQNYFIVMVPLRKSRGGQFPVLLGSPEDMDLEELIQDISRLQRRSLRHSRQLEVPRPYIAARFSILPAVFHPGNQKQYGGFDNRGLEPGHRYVLFVLAVLQKNEPTFAASPFSDPFQLDNPDPQPIVDGEEG
[3]
  binding: binds

B3: IgSF8 extracellular domain, AP- or Fc-tagged (interactome library) (domain or fragment, UniProt Q8R366 26-577)
chain: RQVHVPRGPLYRVAGTAVSISCNVSDYEGPAQQDFEWFMYRPEAPATSLGIVSTKDSQFSYAVFGPRVASGDLQVQRLKGDSVVLKIARLQAQDSGFYECYTPSTDTQYLGNYSAKVELRVLPDELQVSAAPPGPRGRQAATSPSRLTVHEGQELALGCLAQTKTKKHTHLSVSFGRAIPEAPVGRATLQEVVGLRSDMAVEAGAPYAERLASGELRLSKEGTDRYRMVVGGAQAGDSGTYHCTAAEWIQDPDGSWVQVAEKRAVLAHVDVQTLSSQLAVTVGPGERRIGPGEPLELLCNVSGALPPPGRHAAYSVGWEMAPAGAPGPGRLVAQLDTEGIGSLGPGYEDRHIAMEKVASRTYRLRLEAARPADAGTYRCLAKAYVRGSGTRLREAASARSRPLPVHVREEGVVLEAVAWLAGGTVYRGETASLLCNISVRGGPPGLRLAASWWVERPEEGELSSGPAQLVGGVGQDGVAELGVRPGGGPVSVELVGPRSHRLRLHGLGPEDEGIYHCAPSAWVQHADYSWYQAGSARSGPVTVYPYTHAVDT
[4]
  binding: binds
